# According to the supplement of paper PMC7824004:
# This is one part of the list. The data scatter; read single values as rough.
# System: Candida albicans SN425
# Test: biofilm OD600 B-score; higher = more biofilm (less inhibition)
# Conditions: 10 µM; assay detail: High-throughput adherence inhibition optical density biofilm assay with C. albicans SN425 in RPMI-1640/MOPS pH 7.0, 384-well plates. …
# Description: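 High-throughput adherence inhibition optical density biofilm assay with C. albicans SN425 in RPMI-1640/MOPS pH 7.0, 384-well plates. Compound (10 µM) was present only during the 90 min adherence step, then washed out, and the biofilm grew 24 h without compound. Biofilm was read as OD600 after removing the media. Scores are the difference from the mean in standard deviations and the plate B-score.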
row,Structure (SMILES),biofilm OD600 B-score
1,N#CNC(N)=Nc1ccccc1,-2.29
2,Cc1cccc(/C=C/c2ccc3cccc(O)c3n2)c1O,-3.52
3,O=C(CNC(=O)c1ccccc1F)NC1CC1,-1.72
4,Cc1cc(C)nc(SCc2ccccc2F)n1,1.54
5,Cc1cccc(C2NCCc3c2[nH]c2ccccc32)c1 (stereo unspecified),-1.18
6,NS(=O)(=O)c1ccc(NS(=O)(=O)/C=C/c2ccccc2)cc1,2.76
7,Cc1ccc(OCC(O)CN2CCCC2)cc1C (stereo unspecified),-5.11
8,CN1CCN(C(=O)C2CC=CCC2C(=O)O)CC1 (stereo unspecified),-0.258
9,CC1CN(CC(O)COc2ccc(Cl)cc2Cl)CC(C)O1 (stereo unspecified),0.725
10,CN(C)c1nc(N)nc(-c2ccco2)n1,-0.0619
11,O=C(Nc1ccc(Cl)cc1Cl)C1CCCO1 (stereo unspecified),0.977
12,Cc1ccc(NC(=O)c2ccc(NCCN)c([N+](=O)[O-])c2)cc1,-0.503
13,Cc1ccc(C(=O)N(CC(N)=O)CC(N)=O)cc1,2.75
14,O=C(O)C1CCCCC1C(=O)NCc1ccc(Cl)cc1 (stereo unspecified),-1.28
15,Cn1c(SCC(=O)c2cccs2)nnc1-c1ccccc1,-1
16,CS(=O)(=O)Nc1ccccc1C(=O)NC1CCCCC1,-0.0212

# A draw from above in order of length of the SMILES, ascending.
row,Structure (SMILES),biofilm OD600 B-score
13,Cc1ccc(C(=O)N(CC(N)=O)CC(N)=O)cc1,2.75
2,Cc1cccc(/C=C/c2ccc3cccc(O)c3n2)c1O,-3.52
6,NS(=O)(=O)c1ccc(NS(=O)(=O)/C=C/c2ccccc2)cc1,2.76

# The list continues:

row,Structure (SMILES),biofilm OD600 B-score
1,c1cncc(CN2CCc3ccccc3C2)c1,1.06
2,COc1ccc(COCC(O)CN2CCN(c3ccccc3)CC2)cc1OC (stereo unspecified),1.24
3,C1CCCC(NCCCN2CCOCC2)CC1,-0.84
4,OC(C#CCN1CCOCC1)c1ccccc1 (stereo unspecified),1.34
5,CC1CCN(CC(O)COc2ccc3c(c2)CCC3)CC1 (stereo unspecified),1.53
6,O=C(Cc1cccs1)NCc1ccccc1Cl,0.533
7,Cc1ccc(-c2ccc(C)cc2N)c(N)c1,-2.78
8,CCN(CC)c1ccc(-c2nocc2C#N)cc1,0.962
9,Cc1cc(OCC(N)=O)cc(C)c1Br,0.601
10,COc1ccc(C(C)NC(=O)C2CC2)cc1OC (stereo unspecified),-0.492
11,O=C(CSc1nc(O)cc(=O)[nH]1)N1CCOCC1,-1.32
12,CCCOc1ccc(C(=O)NCCC(=O)O)cc1,-2.81
13,O=C(Nc1ccc(C(=O)N2CCOCC2)cc1)C1COc2ccccc2O1 (stereo unspecified),0.376
14,COc1ccc(S(=O)(=O)Nc2cccc(C)c2)cc1OC,-2.12
15,CC(=O)Nc1ccc(S(=O)(=O)Nc2ccc(Cl)cc2F)cc1,-1.17
